# From the supplement of paper PMC9671908
# Where a name gives a salt, the structure may show the parent alone. The list shows a part of the results. Single values are uncertain, as repeats are few or missing.
# Columns and labels:
# MIA PaCa-2 parental = assay: parental cell viability relative to untreated parental control; higher = more surviving cells; conditions: treatment time: 9 days
# MIA PaCa-2 persister = assay: persister cell viability relative to untreated persister control; higher = more surviving persister cells; conditions: treatment time: 9 days; cell state: persister (100 nM gemcitabine + 100 nM Torin1)
Compound,parental cell viability (MIA PaCa-2 parental) [%],persister cell viability (MIA PaCa-2 persister) [%]
Cn1cc(-c2ccc3c(c2)CCN3C(=O)Cc2cccc(C(F)(F)F)c2)c2c(N)ncnc21 (inhibitor concentration: 300nM),110,94
COc1cc(OC)c2cc(-c3ccncc3)cnc2c1 [DMPQ (hydrochloride)] (inhibitor concentration: 3µM),101,150
O=C1C(SCCO)=C(SCCO)C(=O)c2ccccc21 (inhibitor concentration: 3µM),108,65
O=C(C=Cc1ccccc1)NC(NC(=S)Nc1ccc(Cl)cc1)C(Cl)(Cl)Cl (configuration not stated) (inhibitor concentration: 10µM),101,106
CCOC(=O)C1=C(N)Oc2ccc(Br)cc2C1C(C#N)C(=O)OCC (configuration not stated) (inhibitor concentration: 10µM),99.5,98
CN(C)C/C=C/C(=O)Nc1cc2c(Nc3ccc(F)c(Cl)c3)ncnc2cc1O[C@H]1CCOC1 [Afatinib] (inhibitor concentration: 1µM),98,92
Cc1cc(F)c(C(=O)Nc2cccc(-c3nncn3C(C)C)n2)cc1-n1cnc(C2CC2)c1 [Selonsertib] (inhibitor concentration: 10µM),80,93.5
CCN1C(=O)N(c2c(F)c(OC)cc(OC)c2F)Cc2cnc3[nH]c(CN4CCOCC4)cc3c21 [Pemigatinib] (inhibitor concentration: 10µM),82,82
CS(=O)(=O)N1CCN(Cc2cc3nc(-c4cccc5[nH]ncc45)nc(N4CCOCC4)c3s2)CC1 [Pictilisib] (inhibitor concentration: 10µM),29,125
O=C(Nc1cccc(Nc2ncc(Br)c(NCCc3cnc[nH]3)n2)c1)N1CCCC1 (inhibitor concentration: 10µM),20,330
O=C(CNC(=O)c1ccc(-c2ccccc2)cc1)NC1CCCc2ccccc21 (configuration not stated) [Compound 43 TAO Kinase Inhibitor] (inhibitor concentration: 3µM),110,78
CCC[C@H](N)C(=O)O [L-Norvaline] (inhibitor concentration: 1µM),95,160
CN1C(=O)c2sccc2N(C)c2nc(Nc3ccc(S(N)(=O)=O)cc3)ncc21 (inhibitor concentration: 10µM),13,98
CNc1nc(-c2ccc3c(N)n[nH]c3c2)cc(N2C[C@@H](C(=O)NC3CCCCC3)CC[C@H]2C)n1 (inhibitor concentration: 10µM),102,400
Fc1ccc(CNc2ncnc3ccc(F)cc23)cc1 [Spautin-1] (inhibitor concentration: 30µM),90,51
CC(C)C[C@H](NC(=O)[C@H](Cc1ccccc1)NC(=O)c1cnccn1)B(O)O [Bortezomib] (inhibitor concentration: 1nM),100,105
CCc1cncnc1N1CCN(Cc2nc3ccc(C(F)(F)F)cc3[nH]2)CC1 (inhibitor concentration: 1µM),103,230
CC(=O)c1cnc2ccc(-c3cc(Cl)c(O)c(Cl)c3)nc2c1N[C@H]1CC[C@H](CN(C)C)CC1 [OTSSP167 (hydrochloride)] (inhibitor concentration: 10nM),70,50
c1cc(-c2cnn3cc(-c4ccc(OCCN5CCCCC5)cc4)cnc23)ccn1 [Dorsomorphin] (inhibitor concentration: 1µM),84.5,105
NC1(c2ccc(-c3nc4ccn5c(=O)[nH]nc5c4cc3-c3ccccc3)cc2)CCC1 (inhibitor concentration: 3µM),91,91.5
CCN(c1cc(-c2ccc(CN3CCOCC3)cc2)cc(C(=O)NCc2c(C)cc(C)[nH]c2=O)c1C)C1CCOCC1 (inhibitor concentration: 30µM),94,108
CC[C@H](C)[C@H](NC(C)=O)C(=O)N[C@@H](CCC(=O)O)C(=O)N[C@H](C(=O)N[C@H](C=O)CC(=O)O)[C@@H](C)O [Ac-IETD-CHO (trifluoroacetate-salt)] (inhibitor concentration: 10µM),102,95
CC(C)C(C(=O)O)N1C(=O)C(=Cc2ccc(Br)cc2)SC1=S (configuration not stated) (inhibitor concentration: 10µM),99,97
C=C(F)C(=O)N1CCN(c2nc(OC[C@@H]3CCCN3C)nc3c2CCN(c2cccc4cccc(Cl)c24)C3)C[C@@H]1CC#N (inhibitor concentration: 1µM),60,151
C/C(=C1/C(=O)Nc2ccc(NC(N)=O)cc21)c1ccc[nH]1 (inhibitor concentration: 3µM),95,95
N#CC[C@H](C1CCCC1)n1cc(-c2ncnc3[nH]ccc23)cn1 [Ruxolitinib (phosphate)] (inhibitor concentration: 60µM),5,101

Compound,parental cell viability (MIA PaCa-2 parental) [%],persister cell viability (MIA PaCa-2 persister) [%]
O=C(Nc1ccc([N+](=O)[O-])cc1Cl)c1cc(Cl)ccc1O [Niclosamide] (inhibitor concentration: 100nM),96,104
Oc1c(F)cc(-c2cnccc2-c2ccc(N3CCOCC3)cc2)cc1F (inhibitor concentration: 30µM),106,180
COc1c(C)cnc(Cn2cnc3c(Cl)nc(N)nc32)c1C (inhibitor concentration: 300nM),5,100
CNCc1ccc(-c2cc(-c3nc(-c4ccc(S(=O)(=O)C(C)C)cc4)cnc3N)on2)cc1 [Berzosertib] (inhibitor concentration: 100nM),97,20
NC1(C(=O)N[C@@H](CCO)c2ccc(Cl)cc2)CCN(c2nc[nH]c3nccc2-3)CC1 [Capivasertib] (inhibitor concentration: 30µM),84,25
CN1c2ccc([N+](=O)[O-])cc2N=C(c2ccc(C(=O)O)cc2)c2cc3c(cc21)C(C)(C)CCC3(C)C (inhibitor concentration: 10µM),60,100
Cc1cnc(NC(=O)Nc2cc(Br)c(C)cc2OC[C@@H]2CNCCO2)cn1 (inhibitor concentration: 30nM),92,6
CCc1cnn2c(NCc3ccc[n+]([O-])c3)cc(N3CCCC[C@H]3CCO)nc12 [Dinaciclib] (inhibitor concentration: 30nM),95.5,101
c1ccc(-c2ccc(CNc3nc(-c4ccccn4)nnc3-c3ccccc3)cc2)cc1 (inhibitor concentration: 100nM),80,80
NC(=O)c1ncn([C@@H]2O[C@H](CO)[C@@H](O)[C@H]2O)c1N (inhibitor concentration: 1µM),96.5,106
CN(C[C@@H]1COCCO1)S(=O)(=O)Nc1ccc2ccc3ncc(-c4cnn(C)c4)cc3c(=O)c2c1 (inhibitor concentration: 10µM),92,104
CCN1CCN(C(c2ccc(C(F)(F)F)cc2)c2ccc3cccnc3c2O)CC1 (configuration not stated) (inhibitor concentration: 10µM),98,95
Cn1cc(-c2ccc(F)c(C(F)(F)F)c2)nc1C1CCN(c2ncnc3[nH]ncc23)CC1 (inhibitor concentration: 1µM),105,200
O=C(Nc1ccc(Cl)cc1)c1cc2ccccc2cc1OP(=O)(O)O (inhibitor concentration: 1µM),92,103
CC1(COc2ccc3c(c2)ncn3-c2ccc3cccc(N4CCC(N)CC4)c3n2)COC1 [Crenolanib] (inhibitor concentration: 3µM),1,135
NC1(Cc2ccc(Cl)cc2)CCN(c2ncnc3[nH]ccc23)CC1 (inhibitor concentration: 10µM),109,110
Cc1nc(-c2nc(-c3ccc(OC(F)(F)F)cc3)no2)nn1Cc1cccc(N2CCC(S(C)(=O)=O)CC2)c1 (inhibitor concentration: 10µM),100,100
COc1ccc2c3n(c(=NC(=O)c4cccnc4)nc2c1OC)CCN3 (inhibitor concentration: 1µM),82.5,119
Cc1c(C(=O)Nc2ccc(N3C[C@@H](C)O[C@@H](C)C3)nc2)cccc1-c1ccc(OC(F)(F)F)cc1 [Sonidegib] (inhibitor concentration: 3µM),62,58
Cc1nn(C)c(COc2ccc(N3CCN(S(=O)(=O)N(C)C)CC3)cc2)c1-c1cccc2c(CCCOc3cccc4ccccc34)c(C(=O)O)n(CCN3CCOCC3)c12 (inhibitor concentration: 10µM),80,25
O=C(COc1ccc(Cl)cc1)NC1CCC(NC(=O)COc2ccc(Cl)cc2)CC1 (stereo not drawn) [trans-ISRIB] (inhibitor concentration: 10µM),101,64
Cc1cc(Nc2cc(N)ncn2)c(=O)n2c1C(=O)NC21CCCCC1 [Tomivosertib (eFT-508)] (inhibitor concentration: 100µM),79,108
C/C(=N\NC(=O)c1cccc(S(=O)(=O)N2CCOCC2)c1)c1cc(Cl)ccc1O (inhibitor concentration: 1µM),75,108
Cc1cc2c(C(N)=O)cccc2n1-c1nc2c(c(NCc3ccccc3)n1)COCC2 (inhibitor concentration: 300nM),20,50
CC(C)c1c(-c2ccccc2)nc2c(C#N)c[nH]n2c1=O (inhibitor concentration: 30µM),104,95
